Test system: anaesthetized dog
Test: Activity on the peripheral circulation, anaesthetized dog
Assay type: in vivo
Conditions: 5 mg/kg i.v. slow perfusion
Experimental: The activity on the peripheral circulation was studied on an anaesthetized dog (sodium pentobarbital 30 mg/kg/i.v.). The femoral artery flow was measured by means of an electromagnetic or ultrasonic perivascular Doppler effect probe.

C(=C\c1ccccc1)/CN1CCN(C(c2ccccc2)c2ccccc2)CC1 [Cinnarizine, cinnarizine, reference compound]
Average arterial pressure: in time: 15 min

Source: US4178442A, “Novel cinnamoyles piperazines and homopiperazines, the method of preparing them and their application in therapeutics” (Delalande S. A., priority 1977, dated 1979)
